Results reported in patent US20200121807A1, “Anti-Cancer Agents” (UEA ENTERPRISES LIMITED, priority 2016, published 2020).
For at least one compound, name, drawing or mass did not settle the structure.

Test system: MDA-MB-231 metastatic triple negative breast cancer cell
Experiment: MDA-MB-231 breast tumour xenograft, free agents, tumour weight
Format: in vivo, Balb/c nude mice
Details: 5 mg/kg single agent, breast tumours
Protocol: Tumour weight at week 5. Columns, mean of three experiments performed in triplicate. Bars, SE. * p<0.05 versus control.
Mice and tumours were weighed.
Data are presented as the mean values of at least three independent experiments normalised to control±standard error of the mean (SE) calculated using OriginPro. Statistical significance between two groups was conducted by unpaired Student's t test. p value of <0.05 is considered statistically significant.

CCCCCCCCc1ccc(CCC(N)(CO)CO)cc1 [FTY720, fingolimod]
tumour weight reduction, individual drug treatment: did not reduce the tumour weight significantly
